Results on twelve molecules are retold here after patent US20220403028A1 (NUMAB THERAPEUTICS, published 2022).

The chains behind the UniProt entries cited, without tags or fusion partners. Where a name states a change or a piece, a line headed by the entry shows the natural chain unless it says otherwise.
UniProt P07766: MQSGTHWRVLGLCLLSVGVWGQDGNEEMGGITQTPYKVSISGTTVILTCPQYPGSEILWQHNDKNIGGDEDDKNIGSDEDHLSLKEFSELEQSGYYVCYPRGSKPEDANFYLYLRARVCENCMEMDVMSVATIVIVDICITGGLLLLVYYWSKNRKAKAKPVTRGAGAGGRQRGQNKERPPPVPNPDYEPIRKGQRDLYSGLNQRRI

Positions count from the first letter of the chain named. No constants are given. Whether binding was seen depends on the method and setting. Some entries that bind do so weakly or less than the wild type.

The target in the assay is human CD3ε (recombinant, coupled to the SPR chip) (human) (UniProt P07766). In words: SPR, scFv on immobilised CD3ε. A general note: In SPR one partner is held on a chip, and binding of the other changes the refractive index at the surface.

B1: 28-21-D09-sc28 (scFv)
scFv: DIQMTQSPSSLSASVGDRVTITCQSSQSVFSNNYLAWFQQKPGKAPKRLIYSASTLASGVPSRFSGSGSGTDFTLTISSLQPEDFATYYCLGSYACSSADCYVFGTGTKVTVLGGGGGSGGGGSGGGGSGGGGSEVQLVESGGGLVQPGGSLRLSCAASGFSLSSYDMSWVRQAPGKGLEWIGASYASGPTYYASWAKGRFTISRDNSKNTVYLQMNSLRAEDTAVYYCARGGWTGTSHSNIWGQGTLVTVSS
As to B1, the binding entry is on record as “binds”.

B2: 28-21-D09-sc16 (scFv)
scFv: B1 scFv with F38Y, K44Q, A45S, V226T, Y228F
Take B2: the binding result is given as “binds”.

B3: 28-21-D09-sc04 (scFv)
scFv: B1 scFv with K44Q, A45S, E180A, V226T, Y228F
With B3, the binding entry is “binds”.

B4: 28-21-D09-sc21 (scFv)
scFv: B1 scFv with F38Y, K44Q, A45S, E180A
For the molecule B4, the binding entry is recorded as “binds”.

B5: 28-21-D09-sc22 (scFv)
scFv: B1 scFv with K44Q, A45S
As for B5, the binding result is given as “binds”.

B6: 28-21-D09-sc24 (scFv)
scFv: B1 scFv with F38Y, K44Q, A45S, R48K, E180A
Take B6: the binding result is “binds”.

B7: 28-21-D09-sc27 (scFv)
scFv: B1 scFv with F38Y, K44Q, A45S, A158V, E180A
On to B7, for which the binding entry is “binds”.

B8: 28-21-D09-sc18 (scFv)
scFv: B1 scFv with F38Y, K44Q, A45S, D72H
As to B8, the binding entry is “binds”.

B9: 28-21-D09-sc19 (scFv)
scFv: B1 scFv with F38Y, K44Q, A45S
With B9, the binding entry is on record as “binds”.

B10: 28-21-D09-sc26 (scFv)
scFv: B1 scFv with F38Y, K44Q, A45S, D72Q, E180A
B10: the binding entry is given as “binds”.

B11: 28-21-D09-sc23 (scFv)
scFv: B1 scFv with F38Y, E180A
Take B11: the binding result is listed as “binds”.

B12: 28-21-D09-sc15 (scFv)
scFv: B1 scFv with F38Y, K44Q, A45S, D72H, V226T, Y228F
With B12, the binding result was “binds”.
